Laboratory results taken from PubChem BioAssay AID540276 (National Center for Advancing Translational Sciences (NCATS), 2011).
Where “and” joins values, the source holds several entries; their conditions need not be identical. Equal entries are not always repeated. Hit rate of the full screen: of about 300,000 compounds, about 5,400 (1.8%) were called active. The inconclusive results got no clear call from the source; some entries with a clear call stand among them for comparison. The call rests on the fitted dose curve; tested in HEK293 cells. A potency beside an inconclusive call is a rough fit, not a confirmed value.

Test: qHTS for inhibitors of binding or entry into cells for Marburg Virus
Settings: Marburg virus pseudotyped entry inhibition, cell reporter; activity change, negative = inhibition: at 37.8 µM (top of the series) unless noted
On the % scale 0 is the no-effect control and ±100 the full control effect; potency means the concentration at half of the fitted maximal effect.

Row | Compound | Potency | activity change, negative = inhibition
1 | CCCOc1ccc(C(=O)C(CN2CCOCC2)c2ccccc2)cc1 (centres undefined) | active: 15.8 µM | –
2 | Cc1ccc(CSc2nc3ccc(NC(=O)COc4ccccc4F)cc3s2)cc1 | inconclusive: 1.26 µM [inhibitor, full curve, poor fit] | –
3 | O=C1CSC(c2cn(-c3ccccc3)nc2-c2cc3ccccc3o2)N1Cc1ccccc1 (centres undefined) | inconclusive: 35.5 µM [inhibitor, single point] | –
4 | Cc1noc(/C=C/c2ccco2)c1S(=O)(=O)N1CCC(C(=O)N2c3ccccc3CC2C)CC1 (centres undefined) | – | inactive: 7.62%
5 | NC(=O)COC(=O)CN1C(=O)C2CCCCC2C1=O (centres undefined) | inconclusive: 31.6 µM [activator, single point] | –
6 | CCOc1ccccc1NC(=O)Cn1nnc2sc3c(c2c1=O)CCC(C(C)(C)C)C3 (centres undefined) | inconclusive: 7.94 µM [inhibitor, partial curve] | –
7 | Cc1ccc(NC(=S)c2ccc(N(C)C)cc2)cc1 | inconclusive: 8.2 µM [inhibitor, partial curve, poor fit] | –
8 | Cc1ccccc1C(=O)/C=C1/c2ccccc2CC(C)(C)N1C | – | inactive: 15.1%
9 | Cc1cc(N/N=C/c2cccc(Cl)c2)nc(-n2nc(C)cc2C)n1 | inconclusive: 15.8 µM [inhibitor, partial curve, poor fit] | –
10 | O=C(Nc1ccccc1)N1CCc2c([nH]c3ccccc23)C1C(F)(F)F (centres undefined) | inconclusive: 14.1 µM [inhibitor, partial curve, poor fit] | –
11 | CCN(C(=O)CSc1nnc(-c2ccncc2)n1-c1ccccc1)C1CCS(=O)(=O)C1 (centres undefined) | inconclusive: 2.51 µM [activator, partial curve, poor fit] | –
12 | COC(=O)Oc1cncc(C(=O)O)c1 | – | inactive: 3.2%
13 | CCOC(=O)Cc1ccc(NCc2ccc(Cl)cc2)cc1 | – | inactive: 1.15%
14 | COc1ccc(CN(CC(=O)NC2CCCCC2)C(=O)CCC(=O)Nc2nccs2)cc1 | – | inactive: -29.3% [at 46.1 µM]
15 | CC1CC(C)CN(c2ccc(C(=O)OCC(=O)NC3CCCc4ccccc43)cc2[N+](=O)[O-])C1 (centres undefined) | inconclusive: 0.501 µM [activator, single point] | –
16 | COc1cc(CN2CCC(C(=O)N3CCCC(C)C3)CC2)cc(OC)c1O (centres undefined) | – | inactive: -8.95%
17 | COC(=O)c1cc(NC(=O)CN(c2ccccc2)S(=O)(=O)N(C)C)ccc1Cl | inconclusive: 35.5 µM [inhibitor, single point] | –
18 | CCN(CC)CCCNc1nc(N)c([N+](=O)[O-])c(N2CCCCCC2)n1 | inconclusive: 8.91 µM [inhibitor, partial curve] | –
19 | O=C(NC(=S)Nc1ccc(Cl)cn1)C(c1ccccc1)c1ccccc1 | inconclusive: 15.8 µM [inhibitor, single point] | –
20 | COc1ccc(C2c3c(ncn(CCCO)c3=N)Oc3ccc4ccccc4c32)cc1OC (centres undefined) | – | inactive: 8.47% [at 46.1 µM]
21 | COc1cccc(NC(=O)CN(C)CC(=O)Nc2cccc(C(F)(F)F)c2)c1 | inconclusive: 20 µM [inhibitor, single point] | –
22 | CN1CCN(CC(=O)N(C)c2nc(-c3ccccc3)cs2)CC1 | inconclusive: 3.55 µM [activator, single point] | –

Fetched by compound from the entries so far (four):
Row | Compound | Potency | activity change, negative = inhibition
16 | COc1cc(CN2CCC(C(=O)N3CCCC(C)C3)CC2)cc(OC)c1O (centres undefined) | – | inactive: -8.95%
22 | CN1CCN(CC(=O)N(C)c2nc(-c3ccccc3)cs2)CC1 | inconclusive: 3.55 µM [activator, single point] | –
5 | NC(=O)COC(=O)CN1C(=O)C2CCCCC2C1=O (centres undefined) | inconclusive: 31.6 µM [activator, single point] | –
1 | CCCOc1ccc(C(=O)C(CN2CCOCC2)c2ccccc2)cc1 (centres undefined) | active: 15.8 µM | –

Next part

Row | Compound | Potency | activity change, negative = inhibition
23 | COc1ccc(C(C[N+](=O)[O-])c2c(C)[nH]n(-c3ccccc3)c2=O)cc1 (centres undefined) | – | inactive: -10.4% [at 46.1 µM]
24 | COc1ccc(NC(=O)Cn2cc(C(=O)C3CC3)c3ccccc32)cc1 | inactive and inconclusive: 3.55 µM [inhibitor, single point] | –
25 | Cc1cc(C)c2nc(NNC(=O)c3cc(-c4cccs4)nc4ccccc34)sc2c1 | inconclusive: 29.1 µM [inhibitor, single point] | –
26 | CC(C)(C)N(NC(=O)Nc1ccc(Cl)c(Cl)c1)C(=O)c1ccccc1 | inconclusive: 12.6 µM [inhibitor, partial curve, poor fit] | –
27 | COc1cc(OC)cc(-n2c(=O)c3ccccc3n(CC(=O)NCCc3ccc(OC)c(OC)c3)c2=O)c1 | – | inactive: -28.5% [at 46.1 µM]
28 | Cc1c(Cl)cccc1NC(=O)CSC(N)=O | inconclusive: 35.5 µM [inhibitor, single point] | –
29 | O=C(CSc1nnc(Cn2nnc(-c3ccccc3)n2)n1-c1ccccc1)Nc1ccccc1 | inconclusive: 29.1 µM [inhibitor, single point] | –
30 | Cc1ccc(Cl)cc1NS(=O)(=O)c1ccccc1 | inconclusive: 11.2 µM [inhibitor, partial curve, poor fit] | –
31 | Cc1nnc(SCC(=O)Nc2cccc(S(=O)(=O)NC3=NCCCCC3)c2)n1Cc1ccccc1 | – | inactive: 5.13%
32 | CCC(=NCc1ccc2c(c1)OCO2)c1c(O)n(C)c(=O)n(C)c1=O | inconclusive: 23.1 µM [inhibitor, single point] | –
33 | CCc1cc(=O)[nH]c(SCC(=O)NCc2ccc3c(c2)OCO3)n1 | inconclusive: 12.6 µM [activator, single point] | –
34 | Cc1cccc2[nH]c3c(N4CCC5(CC4)OCCO5)ncnc3c12 | inconclusive: 29.1 µM [inhibitor, single point] | –
35 | O=C(c1cc2c(=O)oc3ccccc3c2s1)N1CCOCC1 | – | inactive: 27%
36 | CCC(C)NC(=O)c1sc2nc(C)c(C(=O)Nc3ccc(Cl)cc3)c(-c3ccc(Br)cc3)c2c1N (centres undefined) | inconclusive: 2.51 µM [inhibitor, full curve, poor fit] | –
37 | CCCCCCCc1nc2sc3c(c2c(=O)n1N)CC(C)(C)OC3 | – | inactive: 10.9% [at 46.1 µM]
38 | COc1ccc(-c2nc(CNS(=O)(=O)c3ccc(F)cc3)cs2)cc1 | – | inactive: -19.9% [at 46.1 µM]
39 | Cc1ccc(-c2nnc(CSc3nnc(C)s3)o2)cc1 | inconclusive: 20.6 µM [activator, single point] | –
40 | O=C(Nc1ccccc1N1CCN(c2ccccc2)CC1)C12CC3CC(CC(C3)C1)C2 | – | inactive: -5.13%
41 | Cc1cccc(NC(=O)CSc2nc(C)c(Cc3ccccc3)c(=O)[nH]2)c1 | inconclusive: 2.82 µM [activator, full curve, poor fit] | –
42 | COCCNC(=O)/C(C#N)=C/c1c(N2CCN(c3ccccc3)CC2)nc2c(C)cccn2c1=O | inconclusive: 35.5 µM [inhibitor, single point] | –
43 | O=C(O)c1cc(-c2ccccc2Cl)n[nH]1 | – | inactive: -1.52% [at 46.1 µM]
44 | CCOc1cnc(-c2ccc(OC)cc2)o1 | inconclusive: 3.55 µM [activator, single point] | –
